# Data reported in paper PMC4417206.
# A negative result means that nothing was seen under these conditions. At least one verdict rests on a figure or table, not on a statement of the authors. Protein sequences can lack the tags named with them.
# Biological target: T1, N-ht-CRP (cAMP receptor protein) (Shewanella oneidensis MR-1) (UniProt Q8EJ49)
# T1 sequence (looked up): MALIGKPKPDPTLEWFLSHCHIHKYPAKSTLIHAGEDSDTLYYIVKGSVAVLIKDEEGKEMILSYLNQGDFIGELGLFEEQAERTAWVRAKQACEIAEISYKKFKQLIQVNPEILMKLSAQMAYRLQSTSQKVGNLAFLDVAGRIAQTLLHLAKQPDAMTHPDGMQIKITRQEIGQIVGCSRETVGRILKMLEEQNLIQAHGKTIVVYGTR
# Test: EMSA
# Conditions: no cAMP; 10 mM Tris-HCl pH 7.6, 0.5 mM EDTA, 100 mM KCl, 50 ug/mL BSA, 50 ug/mL poly(dI-dC), 50 uM cAMP, 10% glycerol, 2 nM probe, 0-200 ng CRP in 20 uL, on ice 30 min; recombinant protein; residues 1-211; protein details: N-terminal His tag (pET-28a(+), NdeI/BamHI); label: 5'-Cy3; probe letters rebuilt from the primers and the genome
sequence,measurement,value
TCCACCTCACTATCTGTTGTTTTTTTGCTCTCAATTTGTTTTTCCCTTGTGGTTTAACTACCTCTTTAGAAATAGAAAGATCCAAGTCACACATTAGCAAAGGCTTAGAAGATTTTAACGGCATGTTGGGTTAGCCTTTCCTTGGGGAATTCTATTTCCAGCATCCACTTAAGTCGCTTCTAGTGATCAAATACACAGACATAGAATCTGTTGGCGCTAGAGCATAGCGGTTAAGCAATGCCAAACCTATGCAGGGAAAA (double strand) [PBmtrC1],binding result,no binding
